Taken from: PubChem BioAssay AID504744 (Drosophila RNAi Screening Center, 2011)
Assay: 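Identify dsRNAs that increase or decrease phospho-dAkt after insulin treatment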 (primary screen). Cell system: Drosophila Kc167 cells. Reagents: long dsRNA against Drosophila genes, 250 ng dsRNA per well of a 384-well plate. Timing: 3 days of knock-down, then overnight serum-free starvation before stimulation. Challenge: bovine insulin at 387 nM for 10 minutes after 12 h without serum. Read-out: 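In-cell antibody fluorescence for phospho-dAkt in each well over DNA-dye signal, with log2 residuals expressed as z-scores adjusted for cell count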. Rule for the call: 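Under insulin, a gene counts as a hit if the average z-score of two replicates lies above 2.5 or below -2.5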.
The deposit covers about 23,000 reagents; shown is a random part of those with a known target gene and a result. Over the whole deposit, 98 (0.43%) are marked active. 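Only hit calls are given; the phospho-dAkt signals, z-scores and hit direction were not deposited.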 Reagents against one gene are numbered here. A plus sign joins genes that one reagent is predicted to hit. No sequences are given here.

| Gene | reagent no. | call |
| --- | --- | --- |
| CG17377 | 1 | inactive |
| CG17377 | 2 | inactive |
| CG17377 | 3 | inactive |
| CG9903 | 1 | inactive |
| l(2)37Cd | 1 | inactive |
| p115 | 1 | inactive |
| Trf4 | 1 | inactive |
| CG30484 | 1 | inactive |
| Pp4-19C | 1 | inactive |
| Pp4-19C | 2 | inactive |
| FLASH | 1 | inactive |
| CG31371 | 1 | inactive |
| wts | 1 | inactive |
| CG31559 | 1 | inactive |
| CG31559 | 2 | inactive |
| dock | 1 | inactive |
| Coq2 | 1 | inactive |
| Coq2 | 2 | inactive |
| CG31953 (retired record) + gkt | 1 | inactive |
| CG9926 | 1 | inactive |
| CG9536 | 1 | inactive |
| CG33922 | 1 | inactive |
| CG31650 | 1 | inactive |
| Ndae1 | 1 | inactive |
| Ndae1 | 2 | inactive |
| CG9416 | 1 | inactive |
| Eaf | 1 | inactive |
| Eaf | 2 | inactive |
| Eaf | 3 | inactive |
| CG6908 | 1 | inactive |
| CG9107 | 1 | inactive |
| CG16904 | 1 | inactive |
| CG33223 | 1 | inactive |
| CG13287 | 1 | inactive |
| Rhp | 1 | inactive |
| Nup205 | 1 | inactive |
| CG4480 | 1 | inactive |
| PGRP-SC1b | 1 | inactive |
| CG5892 | 1 | inactive |
| ND-B8 | 1 | inactive |
| CG8405 | 1 | inactive |
| CG8405 | 2 | inactive |
| intr | 1 | inactive |
| CG30284 | 1 | inactive |
| CG5554 | 1 | inactive |
| Brd8 | 1 | inactive |
| CG7766 | 1 | inactive |
| spict | 1 | inactive |
| CG1998 | 1 | inactive |
| CG7214 | 1 | inactive |
| CG7214 | 2 | inactive |
| mthl1 | 1 | inactive |
| Taf13 | 1 | inactive |
| CG7907 | 1 | inactive |
| Tsp29Fb | 1 | inactive |
| fabp + sea | 1 | inactive |
| fabp + sea | 2 | inactive |
| Rpn13 | 1 | inactive |
| CCAP-R | 1 | inactive |
| CCAP-R | 2 | inactive |
| ND-49L | 1 | inactive |
| CG5569 | 1 | active |
| bb8 | 1 | inactive |
| Ndc1 | 1 | inactive |
| verm | 1 | inactive |
| Nnf1b | 1 | inactive |
| CG14968 | 1 | inactive |
| Gapvd1 | 1 | inactive |
| Phae2 | 1 | inactive |
| lft | 1 | inactive |
| CG14883 | 1 | inactive |
| CG7320 | 1 | inactive |
| Ugt50B3 | 1 | inactive |
| Ugt50B3 | 2 | inactive |
| Ugt50B3 | 3 | inactive |
| OS9 | 1 | inactive |
| CG9449 | 1 | inactive |
| CG9588 | 1 | inactive |
| Polr3D | 1 | active |
| CG11145 | 1 | inactive |
| NetB | 1 | inactive |
| Gas41 | 1 | inactive |
| CG13031 | 1 | inactive |
| GstD1 | 1 | inactive |
| Cpr65Aw | 1 | inactive |
| Prosalpha6 | 1 | inactive |
| EloA | 1 | inactive |
| CG32984 | 1 | inactive |
| nac | 1 | inactive |
| CG10365 | 1 | inactive |
| CG33255 (retired record) + hpRNA:CR32205 | 1 | inactive |
| CG33255 (retired record) + hpRNA:CR32205 | 2 | inactive |
| CG7252 | 1 | inactive |
| CG7252 | 2 | inactive |
| GABPI | 1 | inactive |
| CG14022 | 1 | inactive |
| aly | 1 | inactive |
| aly | 2 | inactive |
| okr | 1 | inactive |
| CG7029 | 1 | inactive |
| IFT57 | 1 | inactive |
| Usp1 | 1 | inactive |
| Vm26Ac | 1 | inactive |
| wech | 1 | inactive |
| CG7565 | 1 | inactive |
| CG44433 | 1 | inactive |
| CG44433 | 2 | inactive |
| ppk15 | 1 | inactive |
| CG4000 | 1 | inactive |
| CG4000 | 2 | inactive |
| CG12917 | 1 | inactive |
| CG44325 | 1 | inactive |
| CG32588 | 1 | inactive |
| Ubc4 | 1 | inactive |
| CG9263 | 1 | inactive |
| Rpn12R | 1 | inactive |
| Arl6 | 1 | inactive |
| CG11537 | 1 | inactive |
| Acox3 | 1 | inactive |
| px | 1 | inactive |
| casp | 1 | inactive |
| ich | 1 | inactive |
| ich | 2 | inactive |
| Xpd | 1 | inactive |
| CG8026 | 1 | inactive |
| CG8026 | 2 | inactive |
| Rab7 | 1 | inactive |
| wntD | 1 | inactive |
| CG13217 | 1 | active |
| CG4575 (retired record) | 1 | inactive |
| CG14785 | 1 | inactive |
| CG42566 | 1 | inactive |
| igl | 1 | inactive |
| Meltrin | 1 | inactive |
| Meltrin | 2 | inactive |
| Art3 | 1 | inactive |
| Shrm | 1 | inactive |
| Shrm | 2 | inactive |
| Shrm | 3 | inactive |
| RhoGEF3 (retired record) | 1 | inactive |
| RhoGEF3 (retired record) | 2 | inactive |
| CG5793 | 1 | inactive |
| CG43996 | 1 | inactive |
| CG43996 | 2 | inactive |
| CG32428 | 1 | inactive |
| CG32428 | 2 | inactive |
| CG12496 | 1 | inactive |
| Pi3K92E | 1 | inactive |
| Ir67b | 1 | inactive |
| Nlg3 | 1 | inactive |
| Nlg3 | 2 | inactive |
| Nlg3 | 3 | inactive |
| Nlg3 | 4 | inactive |
| CG32344 | 1 | inactive |
| Mp20 | 1 | inactive |
| CG8534 | 1 | inactive |
| Sodq | 1 | inactive |
| CG17177 | 1 | inactive |
| ppk29 | 1 | inactive |
| Eig71Ed | 1 | inactive |
| CG9967 | 1 | inactive |
| wry | 1 | inactive |
| wry | 2 | inactive |
| wry | 3 | inactive |
| Spn31A | 1 | inactive |
| CG10164 | 1 | inactive |
| CG12016 + Dpm2 | 1 | inactive |
| CG8065 | 1 | inactive |
| DopEcR | 1 | inactive |
| CG15084 | 1 | inactive |
| CG15084 | 2 | inactive |
| alpha-Catr | 1 | inactive |
| CG13510 | 1 | inactive |
| CG12054 | 1 | inactive |
| a5 | 1 | inactive |
| GlcT | 1 | inactive |
| CG9813 | 1 | inactive |
| SMC3 | 1 | inactive |
| APC7 | 1 | inactive |
| CG8738 | 1 | inactive |
| Osi2 | 1 | inactive |
| bark | 1 | inactive |
| CG13894 | 1 | inactive |
| CG31730 | 1 | inactive |
| Sf3b1 | 1 | inactive |
| SoYb | 1 | inactive |
| CG18249 | 1 | inactive |
| Ih | 1 | inactive |
| veil | 1 | inactive |
| CR41501 | 1 | inactive |
| CG3038 | 1 | inactive |
| retm | 1 | inactive |
| CG15256 | 1 | inactive |
| CG7457 | 1 | inactive |
| Gyc89Db | 1 | inactive |
| iotaTry | 1 | inactive |
| CG5011 | 1 | inactive |
| CG5011 | 2 | inactive |
| CG15282 | 1 | inactive |
| Br140 | 1 | inactive |

Entries listed above marked active, once more:
| Gene | reagent no. | call |
| --- | --- | --- |
| CG5569 | 1 | active |
| Polr3D | 1 | active |
| CG13217 | 1 | active |
